These are yes or no findings as the source states them, for the method shown. Binding seen in cells or lysates may run through a third protein. Binding calls can cover weak binding; strength is not graded here.
Legend:
[1] = target: GST-tagged syntaxin 4 (cytoplasmic portion) (UniProt P70452); assay: pull-down; purified GST-syntaxin 4 on glutathione sepharose beads mixed with RIPA lysate of CHO cells expressing Flag-Synip WT or ΔWW, cells serum starved 4 h, with or without 100 nM insulin for 15 min; 2 h at 4°C; anti-Flag immunoblot; only the target purified
[2] = target: GST-tagged syntaxin 4 (cytoplasmic portion) (UniProt P70452); assay: pull-down; purified GST-syntaxin 4 on glutathione sepharose beads mixed with RIPA lysate of 3T3L1 adipocytes expressing Flag-Synip WT or ΔWW, basal state (serum starved 4 h); 2 h at 4°C; anti-Flag immunoblot, band densities quantified (n = 3); only the target purified

Chains of the proteins cited; added tags and fusions are not shown. Lines headed by an entry give the natural chain unless they say otherwise; changes in a name come on top. Residues count along the entry.
UniProt P70452, residues 1-274: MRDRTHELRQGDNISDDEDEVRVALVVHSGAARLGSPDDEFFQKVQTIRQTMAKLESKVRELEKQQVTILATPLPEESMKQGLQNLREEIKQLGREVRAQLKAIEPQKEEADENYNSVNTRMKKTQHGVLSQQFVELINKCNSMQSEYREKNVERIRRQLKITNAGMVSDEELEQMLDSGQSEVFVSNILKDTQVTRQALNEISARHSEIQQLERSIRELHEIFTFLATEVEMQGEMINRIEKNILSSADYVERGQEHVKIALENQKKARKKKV
UniProt Q9WV89: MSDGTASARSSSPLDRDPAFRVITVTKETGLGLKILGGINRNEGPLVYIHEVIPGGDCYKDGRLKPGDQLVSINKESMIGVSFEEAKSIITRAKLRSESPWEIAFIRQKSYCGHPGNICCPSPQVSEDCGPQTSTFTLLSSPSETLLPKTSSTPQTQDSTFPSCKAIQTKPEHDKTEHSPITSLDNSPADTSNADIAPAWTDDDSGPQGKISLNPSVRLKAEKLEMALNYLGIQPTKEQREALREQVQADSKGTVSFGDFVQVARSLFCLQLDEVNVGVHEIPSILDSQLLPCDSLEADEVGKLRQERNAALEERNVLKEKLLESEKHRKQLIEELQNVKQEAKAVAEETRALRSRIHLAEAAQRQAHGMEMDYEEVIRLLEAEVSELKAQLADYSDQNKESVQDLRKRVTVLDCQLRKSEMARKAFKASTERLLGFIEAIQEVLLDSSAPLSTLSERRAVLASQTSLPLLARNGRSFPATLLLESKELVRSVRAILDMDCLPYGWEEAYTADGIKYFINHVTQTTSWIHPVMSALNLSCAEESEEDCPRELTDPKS

binding [1]: binds | binding [2]: binds
Substance: Flag-tagged Synip ΔWW (Synip with the WW domain deleted) (from UniProt Q9WV89)

Reference: paper PMC3411842
